These are yes or no findings as the source states them, for the method shown. Binding seen in cells or lysates may run through a third protein. Some results given as binding are weak or reduced against the parent protein; the word gives no strength. For part of these data: Sequences can lack the tags named with a protein.
B1: FOXD3 (endogenous, in Suv39h dn mESCs) (protein, UniProt Q61060 1-465)
chain: MTLSGSGSASDMSGQTVLTAEDVDIDVVGEGDDGLEEKDSDAGCDSPAGPPDLRLDEADEGPPVSAHHGQSQPQALALPTEATGPGNDTGAPEADGCKGGEDAVTGGGGPGAGSGATGGLTPNKPKNSLVKPPYSYIALITMAILQSPQKKLTLSGICEFISNRFPYYREKFPAWQNSIRHNLSLNDCFVKIPREPGNPGKGNYWTLDPQSEDMFDNGSFLRRRKRFKRHQQEHLREQTALMMQSFGAYSLAAAAGAGPYGLHPAAAAGAYSHPAAAAAAAAAAALQYPYALPPVAPVLPPAVPLLPSGELGRKAAAFGSQLGPSLQLQLNTLGAAAAAAGTAGAAGTTSLIKSEPSARPSFSIENIIGAGSAAPGGSAGGGGSGGGAGGGGGSGGGGGAQSFLRPPGTVQSAALMATHQPLSLSRTTATIAPILSVPLSGQFLQPAASAAAAAAAAVQAKWPAQ
B2: SUV39H1 (endogenous, in Foxd3 cKO mESCs) (enzyme, UniProt O54864 1-412)
chain: MAENLKGCSVCCKSSWNQLQDLCRLAKLSCPALGVSKKNLYDFEVEYLCDYKKIREQEYYLVKWRGYPDSENTWEPRQNLKCIRVLKQFHKDLERELVRRHRRSKPPRHLDPNLANYLVQKAKQRRALQRWEQELNAKRSHLGRITVENEVDLDGPPRSFVYINEYRVGEGITLNQVAVGCECQDCLLAPTGGCCPGASLHKFAYNDQGQVRLKAGQPIYECNSRCCCGYDCPNRVVQKGIRYDLCIFRTNDGRGWGVRTLEKIRKNSFVMEYVGEIITSEEAERRGQIYDRQGATYLFDLDYVEDVYTVDAAYYGNISHFVNHSCDPNLQVYNVFIDNLDERLPRIAFFATRTIWAGEELTFDYNMQVDPVDMESTRMDSNFGLAGLPGSPKKRVRIECKCGTTACRKYLF

Protein sequences, listed by entry. Tags and fused reporters are not part of them.
UniProt Q9EQQ0: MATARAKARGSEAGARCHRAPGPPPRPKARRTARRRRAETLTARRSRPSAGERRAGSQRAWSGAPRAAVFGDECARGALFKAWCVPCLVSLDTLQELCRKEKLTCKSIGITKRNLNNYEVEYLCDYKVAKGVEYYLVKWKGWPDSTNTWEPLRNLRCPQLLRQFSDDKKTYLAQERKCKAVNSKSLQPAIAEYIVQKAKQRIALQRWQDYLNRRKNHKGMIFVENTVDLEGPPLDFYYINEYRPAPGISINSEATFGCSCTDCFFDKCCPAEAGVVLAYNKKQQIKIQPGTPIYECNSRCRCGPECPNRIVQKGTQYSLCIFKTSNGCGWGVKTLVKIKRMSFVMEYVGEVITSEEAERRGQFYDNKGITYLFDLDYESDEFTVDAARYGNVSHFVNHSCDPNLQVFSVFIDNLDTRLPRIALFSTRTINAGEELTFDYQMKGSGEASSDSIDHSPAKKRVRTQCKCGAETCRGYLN

Legend:
GFP-SUV39H1 = target: T1, GFP-SUV39H1 (UniProt O54864); assay: co-IP; GFP-trap Dynabeads immunoprecipitation from Suv39h dn mESCs expressing GFP-SUV39H1 or GFP-SUV39H2; immunoblot with GFP and FOXD3 antibodies
T1 sequence: B2 chain

GFP-SUV39H2 = GFP-SUV39H2 (UniProt Q9EQQ0); assay: as above
[1] = target: T2, GFP-FOXD3 (wild-type, full-length) (mouse) (UniProt Q61060); assay: co-IP; GFP-trap Dynabeads immunoprecipitation from Foxd3 cKO mESCs expressing GFP-FOXD3; immunoblot with SUV39H1, SETDB1 and GFP antibodies
T2 sequence: B1 chain

Binder	binding (GFP-SUV39H1)	binding (GFP-SUV39H2)	binding [1]
B1	binds	binds	–
B2	–	–	binds
